Values from PubChem BioAssay AID1224826 (NIAID, 2016).

Aim: 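Regulators of Tlr4 signalling leading to Tnf-alpha expression in macrophages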 (primary screen)
Cells: RAW264.7 G9 macrophages from mouse bearing reporters for p65 (GFP) and the Tnf promoter (mCherry)
Reagents: siRNA pool against mouse genes, 100 nM
Timing: 16 h of LPS stimulation, after 2 days of siRNA transfection
Challenge: bacterial lipopolysaccharide (Salmonella minnesota R595), 10 ng/ml
Measured: 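Imaged Tnf reporter mCherry in nuclei, minus background, normalised per plate to the median and expressed as robust z-scores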
Direction: Tnf reporter robust z-score: higher = stronger Tnf promoter reporter signal after LPS
Rule for the call: 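Called active when robust z-score is at most -1.3, matching the median of the Tlr4 knock-down control, or over 3; control wells and wells with under 50 cells never active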
Calls: active = Tnf reporter clearly lowered or raised; inactive = no clear change in Tnf reporter
Shown is an unselected part of about 17,000 reagents. In the full data, about 1,110 (6.6%) are marked active. 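Active means lowered or raised reporter signal; replicate intensities are raw and not normalised per plate.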 Entries without a mark were called inactive. Not all columns of the deposit are shown. Reagent sequences are not shown.

Llgl2
- Tnf reporter robust z-score: 1.43
- fewer than 50 cells in well: enough cells in well

Mrpl17
- Tnf reporter robust z-score: 0.74
- fewer than 50 cells in well: enough cells in well

Chtop
- Tnf reporter robust z-score: -0.77
- fewer than 50 cells in well: enough cells in well

Matcap2
- Tnf reporter robust z-score: -0.3
- fewer than 50 cells in well: enough cells in well

Cdpf1
- Tnf reporter robust z-score: -0.38
- fewer than 50 cells in well: enough cells in well

Crygc
- Tnf reporter robust z-score: -0.95
- fewer than 50 cells in well: enough cells in well

Entries above whose target name begins with C or c:
Chtop
- Tnf reporter robust z-score: -0.77
- fewer than 50 cells in well: enough cells in well

Cdpf1
- Tnf reporter robust z-score: -0.38
- fewer than 50 cells in well: enough cells in well

Crygc
- Tnf reporter robust z-score: -0.95
- fewer than 50 cells in well: enough cells in well

Further reagents:
C1s1
- Tnf reporter robust z-score: 0.4
- fewer than 50 cells in well: enough cells in well

Or13a20
- Tnf reporter robust z-score: 1.04
- fewer than 50 cells in well: enough cells in well

Prr14
- Tnf reporter robust z-score: -0.26
- fewer than 50 cells in well: enough cells in well

Cela2a
- Tnf reporter robust z-score: -1.73 (active)
- fewer than 50 cells in well: enough cells in well

Myf6
- Tnf reporter robust z-score: -0.11
- fewer than 50 cells in well: enough cells in well

Trpc1
- Tnf reporter robust z-score: -0.19
- fewer than 50 cells in well: enough cells in well
